Residue numbers refer to the chain shown, from its start. In names and notes the source's numbering stands. No constants are given. Whether binding was seen depends on the method and setting. Some binding calls cover weakened binding; strength is not graded here.

Protein sequences, listed by entry. Tags and fused reporters are not part of them. Residues count along the entry.
UniProt Q8TD46, residues 29-265: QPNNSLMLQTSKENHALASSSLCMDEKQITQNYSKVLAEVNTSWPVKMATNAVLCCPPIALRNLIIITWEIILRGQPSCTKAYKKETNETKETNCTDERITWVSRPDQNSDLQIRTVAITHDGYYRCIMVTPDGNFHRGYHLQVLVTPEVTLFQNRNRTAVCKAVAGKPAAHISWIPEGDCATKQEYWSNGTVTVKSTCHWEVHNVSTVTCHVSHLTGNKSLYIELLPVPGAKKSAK

Our source for the binding values is patent US20230416361A1.

Assay [1] has as its target T1, cyno CD200R expressed on HEK293T cells (cynomolgus) (UniProt G7NZT0).
T1 sequence: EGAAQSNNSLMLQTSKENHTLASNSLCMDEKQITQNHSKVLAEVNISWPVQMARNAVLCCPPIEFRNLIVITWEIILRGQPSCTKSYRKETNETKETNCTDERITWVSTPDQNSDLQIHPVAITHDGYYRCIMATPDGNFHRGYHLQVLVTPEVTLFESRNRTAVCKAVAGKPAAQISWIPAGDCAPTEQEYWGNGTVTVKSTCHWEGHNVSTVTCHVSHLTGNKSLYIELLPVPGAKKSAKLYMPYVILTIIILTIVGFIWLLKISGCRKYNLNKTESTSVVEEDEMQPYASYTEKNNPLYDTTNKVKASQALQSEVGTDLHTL
The experiment in a line: flow cytometry on transiently transfected HEK293T cells, antibody at 10 ug/ml. Background: A flow cytometer gives signals particle by particle.

For assay [2], the target named is monomeric soluble human CD200R extracellular domain (human) (UniProt Q8TD46). The experiment in a line: BLI (Octet), 25 C.

B1: 2131_chimera (antibody, V domains shown)
VH: QVQLQQPGSELVRPGASVKLSCKASGHTFTSYWMHWVKQRPGQGLEWIGNIYPGSGSINYDEKFKSKAKLTVDTSSRTAYMQLSSLTSEDSAVYYCLTMTGTSWGQGTLVTVSA
VL: DVQMIQSPSSLSASLGDIVTMTCQASQGTPINLHWFQQKPGKAPKLLISGASNLEDGVPSRFSGSRYGTAFTLTISSLEDEDMATYFCLQFTYIPWTFGGGTKLEIK
On to B1, for which the binding result in assay [1] is given as “binds”.

B2: hu2131_v20 (antibody, human IgG1, V domains shown)
VH: QVQLVQSGAEVKKPGASVKVSCKASGHTFTSYWMHWVRQAPGQGLEWMGNIYPGSGSINYDEKFQGRVTMTADTSTSTVYMELSSLRSEDTAVYYCLTMTGTSWGRGTLVTVSS
VL: DIQMTQSPSSLSVSVGDRVTITCQASQGTPINLHWFQQKPGKAPKLLISGASNLEDGVPSRFSGSGSGTEFTFTISSLQPEDAATYYCLQFTYIPWTFGQGTKLEIK
Regarding B2, the binding result in assay [2] and in assay [1] was “binds” each time.

B3: hu2131_Q1E_M99G hIgG1k P238D (antibody, V domains shown)
VH: B2 VH with Q1E, M99G
VL: DIQMTQSPSSLSVSVGDRVTITCQASQGTPINLHWFQQKPGKAPKLLISGASNLESGVPSRFSGSGSGTEFTFTISSLQPEDAATYYCLQFTYIPWTFGQGTKLEIKR
Take B3: the binding entry in assay [1] is listed as “binds”.
